Test results as given in PMC13065503.
For at least one entry, the source does not settle the construct or the ends of the probe. At least one verdict was read from the data and is not stated in words by the source.

Sequences of proteins named here, by UniProt entry; tags and fusion partners are left off. Residues count along the entry.
UniProt P01106, 365-454 V369C/V376C/C453A: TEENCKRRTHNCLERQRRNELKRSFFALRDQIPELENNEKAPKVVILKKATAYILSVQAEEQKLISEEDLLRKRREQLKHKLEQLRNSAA
UniProt P01106, 365-454 V376C/N383C/C453A: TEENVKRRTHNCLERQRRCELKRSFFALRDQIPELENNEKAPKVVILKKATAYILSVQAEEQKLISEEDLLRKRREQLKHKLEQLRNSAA
UniProt P01106, 365-454 T365C/V369C/C453A: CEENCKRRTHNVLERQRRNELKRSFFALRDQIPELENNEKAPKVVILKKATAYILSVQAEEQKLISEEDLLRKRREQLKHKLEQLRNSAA
UniProt P01106, 365-454 V369C/T373C/C453A: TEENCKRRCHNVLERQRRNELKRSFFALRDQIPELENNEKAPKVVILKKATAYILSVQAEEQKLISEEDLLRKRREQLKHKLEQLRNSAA

Key:
Experiment in all cases: EMSA
Conditions in all cases: range over HeloMYC variants 8-11, individual value only in Figure 3C; EMSA: 20 mM HEPES pH 8.0, 150 mM NaCl, 5% glycerol, 1 mM EDTA, 2 mM MgCl2, 0.5 mg/mL BSA, 1 mM DTT, 0.05% NP-40; 4 nM DNA; 30 min RT then 15 min on ice; recombinant protein; protein details: His-tag, enterokinase cleavage
[1] = biological target: HeloMYC-714 (9) V369C,V376C,C453A (UniProt P01106)
[2] = biological target: HeloMYC-1421 (8) V376C,N383C,C453A (UniProt P01106)
[3] = biological target: HeloMYC-37 (10) T365C,V369C,C453A (UniProt P01106)
[4] = biological target: HeloMYC-711 (11) V369C,T373C,C453A (UniProt P01106)

Measured: binding result

ACCCCACCACGTGGTGCCT (double strand) [E-box DNA]
binds: all assays above
